Data published in article PMC12066687 (Frontiers in Immunology, 2025).
pEC50, pKd: −log10 of the molar value.

Protein sequences, listed by entry. Tags and fused reporters are not part of them. Residues count along the entry.
UniProt Q05320, 33-650 limits assumed: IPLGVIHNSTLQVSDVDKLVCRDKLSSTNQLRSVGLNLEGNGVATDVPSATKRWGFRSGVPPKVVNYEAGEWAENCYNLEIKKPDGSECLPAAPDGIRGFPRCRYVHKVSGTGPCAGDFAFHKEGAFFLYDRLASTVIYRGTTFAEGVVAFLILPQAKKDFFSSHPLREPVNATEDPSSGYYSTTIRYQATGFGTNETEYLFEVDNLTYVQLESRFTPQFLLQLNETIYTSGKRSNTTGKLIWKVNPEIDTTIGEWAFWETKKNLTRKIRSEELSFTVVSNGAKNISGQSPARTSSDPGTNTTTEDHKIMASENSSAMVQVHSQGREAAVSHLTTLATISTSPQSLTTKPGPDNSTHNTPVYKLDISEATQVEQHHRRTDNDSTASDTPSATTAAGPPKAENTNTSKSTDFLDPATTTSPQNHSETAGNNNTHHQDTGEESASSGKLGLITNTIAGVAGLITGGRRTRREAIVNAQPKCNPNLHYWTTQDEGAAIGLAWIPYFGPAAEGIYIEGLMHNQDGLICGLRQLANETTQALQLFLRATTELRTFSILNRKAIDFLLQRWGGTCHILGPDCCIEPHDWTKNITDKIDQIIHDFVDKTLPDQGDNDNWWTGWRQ

Assays:
VSV-EBOV-GP = experiment: microbe, parasite or virus in culture; assay type: cell-based, Ebola virus (EBOV/H.sap-tc/COD/76/Yambuku-Mayinga); settings: Zaire ebolavirus, Vero, 16 h
EBOV-GP = EBOV-GP (Zaire ebolavirus, UniProt Q05320); experiment: biochemical; assay type: binding, Zaire EBOV (strain Mayinga-76)

CC/C(=C(\c1ccccc1)c1ccc(OCCN(C)C)cc1)c1ccccc1 [Tamoxifen, tamoxifen, reference compound] gave a pEC50 (VSV-EBOV-GP) of 6.72 and a pKd (EBOV-GP) of 4.49.
